Results are given in words; binding and its absence hold for the method and conditions named. A result given as binding can be weak or reduced; the word gives no strength. Tags and fused reporters may be left off the sequences shown.
Biological target: T1, GST-MPK8 (Arabidopsis thaliana) (UniProt Q9LM33)
T1 sequence: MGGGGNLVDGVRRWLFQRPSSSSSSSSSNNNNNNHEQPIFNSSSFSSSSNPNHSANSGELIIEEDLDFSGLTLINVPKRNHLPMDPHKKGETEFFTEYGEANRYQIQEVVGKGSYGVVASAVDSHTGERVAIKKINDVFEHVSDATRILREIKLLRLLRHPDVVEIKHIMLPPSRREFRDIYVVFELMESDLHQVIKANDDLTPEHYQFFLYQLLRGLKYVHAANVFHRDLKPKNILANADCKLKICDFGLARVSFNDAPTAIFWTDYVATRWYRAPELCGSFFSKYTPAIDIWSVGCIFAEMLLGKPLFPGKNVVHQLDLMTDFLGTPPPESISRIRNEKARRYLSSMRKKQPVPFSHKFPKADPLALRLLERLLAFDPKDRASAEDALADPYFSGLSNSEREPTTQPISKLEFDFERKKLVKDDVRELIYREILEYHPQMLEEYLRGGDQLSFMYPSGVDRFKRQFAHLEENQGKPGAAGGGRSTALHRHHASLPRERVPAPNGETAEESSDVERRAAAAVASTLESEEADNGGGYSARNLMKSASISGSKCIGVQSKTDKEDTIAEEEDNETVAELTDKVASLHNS
Test: pull-down; prey LSF2-His6 and bait GST-MPK8 in binding buffer (50 mM Tris-HCl pH 7.5, 100 mM NaCl, 0.5% Triton X-100, 0.5 mM beta-mercaptoethanol), incubated with amylose resin beads at 25 °C for 1 h; western blot with anti-GST antibody; both purified

binding: binds
Substance: LSF2-His6 (Arabidopsis thaliana) (enzyme)

Source: paper PMC4923905
